Results as given in article PMC10454111.
Results are given in words; binding and its absence hold for the method and conditions named. Binding seen in cells or lysates may run through a third protein. For some of these results: Binding calls can cover weak binding; strength is not graded here.

Tests used:
[1] = target: Nluc-OsMKK6m (D69N) (rice (Oryza sativa)) (UniProt Q5QN75); assay: split reporter; firefly luciferase complementation imaging (LCI) in N. benthamiana leaves; Nluc and Cluc fusions co-infiltrated; luminescence at 48 h after infiltration
[2] = target: Nluc-OsMKK6u (D69E) (rice (Oryza sativa)) (UniProt Q5QN75); assay: as above
[3] = target: Nluc-OsMKK6-N (amino acids 1-70 of OsMKK6) (rice (Oryza sativa)) (UniProt Q5QN75); assay: as above
[4] = target: Nluc-OsMKK6n (D69Q) (rice (Oryza sativa)) (UniProt Q5QN75); assay: as above
[5] = target: Nluc-OsMKK6-C (amino acids 71-355 of OsMKK6) (rice (Oryza sativa)) (UniProt Q5QN75); assay: as above
[6] = target: Nluc-OsMKK6 (rice (Oryza sativa)) (UniProt Q5QN75); assay: as above
[7] = target: GFP-tagged OsMKK6 (35S:OsMKK6-GFP) (rice (Oryza sativa)) (UniProt Q5QN75); assay: co-IP; GFP-tagged OsMKK6 or GFP co-expressed with OsMPK4-FLAG in N. benthamiana leaves; lysate (50 mM Tris-HCl pH 7.4, 150 mM NaCl, 1 mM EDTA, 10% glycerol, 1% Triton X-100); anti-GFP magnetic beads; blots with anti-FLAG and anti-GFP

binding [1]	binding [2]	binding [3]	binding [4]	binding [5]	binding [6]	binding [7]	Substance
no binding	no binding	binds	no binding	no binding	binds		Cluc-OsMPK4 (from UniProt Q336X9) (enzyme)
						binds	FLAG-tagged OsMPK4 (Ubi:OsMPK4-FLAG) (from UniProt Q336X9) (enzyme)
